Data taken from paper PMC3743044.

Columns and labels:
[1] = molecular target: T1, GST-tagged Pak3 Cdc42 binding domain (GST-Pak3BD) (mouse) (UniProt Q61036); assay: ELISA; 10 μg/ml GST-Pak3BD immobilised on MaxiSorp; 0.35 μM 6×His-Cdc42 (with or without TGM2/HA), preloaded with GMP-PNP, GDP or GTP, added with 0.2 μM GST-p50RhoGAPΔ in interaction buffer, 30 min at 30 °C; detected with 5×His antibody and TMB; both purified
T1 sequence: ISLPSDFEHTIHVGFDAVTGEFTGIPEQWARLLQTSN

6×His-Cdc42 (mouse) = assay: pull-down; 6 μM 6×His-Cdc42 pre-treated with GMP-PNP, GDP, GTP or GTP + TGM2/HA, 5 mM MgCl2 and 0.2 μM GST-p50RhoGAPΔ, 15 min 37 °C; 40 nM GST-Pak3BD added with Ni-NTA magnetic agarose beads in interaction buffer, at least 4 h at 4 °C; immunoblot; both purified

## 6×His-Cdc42 (mouse)
[1]
  binding: binds

## ISLPSDFEHTIHVGFDAVTGEFTGIPEQWARLLQTSN (domain or fragment, UniProt Q61036-2 70-106) [GST-tagged Pak3 Cdc42 binding domain (GST-Pak3BD)]
6×His-Cdc42 (mouse)
  binding: binds

These are yes or no findings as the source states them, for the method shown. Binding calls can cover weak binding; strength is not graded here. Where a sequence is shown, tags or fusion partners need not be part of it.
